Data reported in the supplement of paper PMC9135407.
Several values for one entry are separate records, joined by “and”; a condition that tells them apart may be missing. Equal values may be shown once. Where a name gives a salt, the structure may show the parent alone. ± gives the standard deviation of the averaged measurements. This is one part of the list. Plates or batches differ in their baseline, so values are only roughly comparable.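 Primary human stellate myofibroblasts activated in culture; inactivation shown by regained lipid droplets. Readout: fraction of Hoechst-counted cells exceeding a per-plate Bodipy threshold, duplicate wells, each plate with DMSO negative and nortriptyline positive controls. Hits: control-normalized score beyond the plate's top-tenth-percentile nortriptyline wells, or among its three best wells. Final well concentrations unstated.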

Tested on: primary human hepatic stellate cells (donor 1)
Test: percent Bodipy-positive cells; higher = more lipid droplet accumulation
Conditions: 48 h
[1] = library stock concentration: 3.33 mM
[2] = library stock concentration: 10 mM
[3] = library stock concentration: 1 mM

O=c1[nH]cnc2c1ncn2[C@@H]1O[C@H](CO)[C@@H](O)[C@H]1O [Inosine]
percent Bodipy-positive cells [1]: 9.43 ± 3.2% | percent Bodipy-positive cells [2]: 17.8 ± 1%

O=c1[nH]cnc2c1ncn2[C@@H]1O[C@H](CO)[C@@H](O)[C@H]1O
percent Bodipy-positive cells [2]: 29.7 ± 0.7%

CCCCOc1cc(CC2CNC(=O)N2)ccc1OC (centres undefined)
percent Bodipy-positive cells (library stock concentration: 18 mM): 16.3 ± 2.1%

OC[C@H]1O[C@@H](n2cnc3c(N[C@H]4CCC[C@@H]4O)ncnc32)[C@@H](O)C1O (stereo partly drawn) [Adenosine, N-(2-hydroxycyclopentyl)-, (1S-trans)- [CAS]]
percent Bodipy-positive cells [2]: 8.32 ± 4.8%

O=C1NC(=O)/C(=C/c2ccc3c(c2)OC(F)(F)O3)S1
percent Bodipy-positive cells [3]: 10.25 ± 0.067% | percent Bodipy-positive cells [1]: 7.28 ± 2%

Cc1n[nH]c(=O)[nH]c1=O [Azathymine, 6]
percent Bodipy-positive cells: 29.2 ± 4.6%

CC(C)Cn1c(=O)n(C)c(=O)c2[nH]cnc21 [3-Isobutyl-1-methylxanthine]
percent Bodipy-positive cells [2]: 38.6 ± 9.7%

CCOc1ccc2nc3cc(N)ccc3c(N)c2c1
percent Bodipy-positive cells [2]: 98.6 ± 1.1%

CCOc1ccc2nc3cc(N)ccc3c(N)c2c1 [Ethacridine lactate monohydrate]
percent Bodipy-positive cells [1]: 28.4 ± 5% | percent Bodipy-positive cells [2]: 94 ± 3.8%

CCN(CC)CCNc1ccc(CO)c2sc3ccccc3c(=O)c12 [Hycanthone]
percent Bodipy-positive cells: 69.4 ± 16% | percent Bodipy-positive cells [2]: 73 ± 4.7%

CC#CCC(C)C(=O)/C=C/[C@@H]1[C@H]2C/C(=C/CCCC(=O)O)C[C@H]2C[C@H]1O (some centres undefined) [15-keto Iloprost]
percent Bodipy-positive cells [3]: 9.77 ± 0.99%

CN(Cc1cnc2nc(N)nc(N)c2n1)c1ccc(C(=O)N[C@@H](CCC(=O)O)C(=O)O)cc1
percent Bodipy-positive cells [2]: 8.57 ± 2.5%

CN(Cc1cnc2nc(N)nc(N)c2n1)c1ccc(C(=O)N[C@@H](CCC(=O)O)C(=O)O)cc1 [Methotrexate hydrate]
percent Bodipy-positive cells [2]: 50.6 ± 19%

CN(Cc1cnc2nc(N)nc(N)c2n1)c1ccc(C(=O)N[C@@H](CCC(=O)O)C(=O)O)cc1 [Methotrexate]
percent Bodipy-positive cells: 22.8 ± 2.5% | percent Bodipy-positive cells [1]: 8.51 ± 3.4% | percent Bodipy-positive cells [2]: 16.8% and 7.36% | percent Bodipy-positive cells (library stock concentration: 11 mM): 21.6 ± 6%

CN(Cc1cnc2nc(N)nc(N)c2n1)c1ccc(C(=O)N[C@@H](CCC(=O)O)C(=O)O)cc1 (racemic) [Amethopterin (R,S)]
percent Bodipy-positive cells: 38.9 ± 13%

O=C(COc1ccc(Cl)cc1)N1CCN(Cc2ccc3c(c2)OCO3)CC1 [Fipexide hydrochloride]
percent Bodipy-positive cells: 25.3 ± 5% | percent Bodipy-positive cells [2]: 43.8 ± 3.6%

CNC(C)CCC=C(C)C (centres undefined) [Isometheptene mucate]
percent Bodipy-positive cells: 9.86 ± 1.8%

Nc1cc(F)ccc1NC(=O)/C=C/c1cnn(C/C=C/c2ccccc2)c1
percent Bodipy-positive cells [1]: 38.1 ± 2.9% | percent Bodipy-positive cells [2]: 55 ± 18%

Nc1nc(NC2CC2)c2ncn([C@H]3C=C[C@@H](CO)C3)c2n1
percent Bodipy-positive cells [2]: 28.2 ± 2.2%

CCCC[C@@H](C=O)NC(=O)[C@H](CC(C)C)NC(=O)[C@H](CC(C)C)NC(C)=O
percent Bodipy-positive cells (library stock concentration: 13 mM): 95.1 ± 0.56%

CCN1CCc2nc(N)oc2CC1 [B-HT 933 dihydrochloride]
percent Bodipy-positive cells [2]: 29.7 ± 0.28%

COc1cc(C(C)=O)ccc1O [Apocynin]
percent Bodipy-positive cells [1]: 11.4 ± 0.83% | percent Bodipy-positive cells [2]: 22.4 ± 3.3%

C[N+](C)(C)CCOC(=O)CCC(=O)OCC[N+](C)(C)C [Succinylcholine chloride]
percent Bodipy-positive cells [2]: 18.7 ± 5.8%

C[N+](C)(C)CCOC(=O)CCC(=O)OCC[N+](C)(C)C [Succinylcholine]
percent Bodipy-positive cells (library stock concentration: 6.9 mM): 7.1 ± 2.1%

O=C(CCCCCCC(=O)Nc1ccc([C@H]2O[C@@H](CSc3nc(-c4ccccc4)c(-c4ccccc4)o3)C[C@@H](c3ccc(CO)cc3)O2)cc1)NO [Tubacin]
percent Bodipy-positive cells [1]: 10.3 ± 2.5% | percent Bodipy-positive cells [2]: 11.9 ± 3.7%

Cc1ccsc1/C=C/C1=NCCCN1C [Morantel tartrate]
percent Bodipy-positive cells: 28.3 ± 2.5%

Cc1ccsc1/C=C/C1=NCCCN1C [Morantel citrate]
percent Bodipy-positive cells (library stock concentration: 4.8 mM): 9.61 ± 2% | percent Bodipy-positive cells [2]: 43.6 ± 0.52%

CCCCCCCCCCCCCCCCOP(=O)([O-])OCC[N+](C)(C)C [Miltefosine]
percent Bodipy-positive cells [3]: 9.7 ± 5.6% | percent Bodipy-positive cells (library stock concentration: 4.9 mM): 10.1 ± 0.23% | percent Bodipy-positive cells [2]: 43.2 ± 6.9%

CCCCC[C@](C)(O)/C=C/[C@H]1[C@H](O)CC(=O)[C@@H]1CCCCCCC(=O)O [15(S)-15-methyl Prostaglandin E1]
percent Bodipy-positive cells [3]: 19.9 ± 0.4%

CC(Cc1ccc(O)c(O)c1)(NN)C(=O)O [(S)-(-)-Carbidopa]
percent Bodipy-positive cells [2]: 5.63 ± 1.4%

CC(Cc1ccc(O)c(O)c1)(NN)C(=O)O (stereo not drawn) [S-(-)-Carbidopa]
percent Bodipy-positive cells [2]: 53.1 ± 5.5%

CCCn1c(=O)[nH]c2nc(-c3ccc(S(=O)(=O)O)cc3)[nH]c2c1=O
percent Bodipy-positive cells [2]: 3.42 ± 0.81%

CCCCCCCCCC(=O)NC(CN1CCOCC1)[C@H](O)c1ccccc1 (some centres undefined)
percent Bodipy-positive cells [2]: 38.3 ± 9.6%

CN(C)c1ccc(O)c2c1C[C@H]1C[C@H]3[C@H](N(C)C)C(O)=C(C(N)=O)C(=O)[C@@]3(O)C(O)=C1C2=O [Minocycline hydrochloride]
percent Bodipy-positive cells: 12.6 ± 0.56% | percent Bodipy-positive cells (library stock concentration: 4 mM): 3 ± 0.68% | percent Bodipy-positive cells [2]: 43.1 ± 9%

CN(C)c1ccc(O)c2c1C[C@H]1C[C@H]3[C@H](N(C)C)C(O)=C(C(N)=O)C(=O)[C@@]3(O)C(O)=C1C2=O [Minocycline HCl]
percent Bodipy-positive cells (library stock concentration: 4.4 mM): 7.96 ± 1.5%

CN(C)c1ccc(O)c2c1C[C@H]1C[C@H]3[C@H](N(C)C)C(O)=C(C(N)=O)C(=O)[C@@]3(O)C(O)=C1C2=O
percent Bodipy-positive cells [2]: 26.9 ± 0.33%

COc1cccc(OC)c1C(=O)N[C@@H]1C(=O)N2[C@@H]1SC(C)(C)[C@@H]2C(=O)O [Methicillin sodium]
percent Bodipy-positive cells (library stock concentration: 5 mM): 2.84 ± 0.32% | percent Bodipy-positive cells [2]: 23.9 ± 2.8%

Cc1ccc(S(=O)(=O)NC(=O)NN2CCCCCC2)cc1
percent Bodipy-positive cells [2]: 34 ± 3.2%

Cc1ccc(S(=O)(=O)NC(=O)NN2CCCCCC2)cc1 [Tolazamide]
percent Bodipy-positive cells: 23.6 ± 0.68% | percent Bodipy-positive cells (library stock concentration: 6.4 mM): 9.44% and 18.4% | percent Bodipy-positive cells [2]: 12.5% and 22.9% | percent Bodipy-positive cells (library stock concentration: 16.1 mM): 20.5 ± 1.4%
